PubChem BioAssay AID2685 (National Center for Advancing Translational Sciences (NCATS), 2010)
Values joined by “and” are separate entries in the source; they are usually repeats but may differ in a detail not shown here. Equal values may be shown once. The list shows a part of the results. Further columns of the screen follow, without active or inactive calls. The list favours compounds with an active or inconclusive main result. Potencies come from curve fits of mixed quality, noted in brackets.

Test: qHTS Assay for Lipid Storage Modulators in Drosophila S3 Cells;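 on cell number change: cells counted by Cell Tracker Red CMTPX staining in the red channel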
Settings: BODIPY lipid droplet fluorescence, 18-24 h; for cell number change: measured here: cell count max response, cells fed with added oleic acid
Procedure, shortened: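 Laser-scanning cytometry quantifies lipid droplet accumulation (500–530 nm total intensity; droplet/cell object ratio) in oleic acid-fed (400 uM added) Drosophila S3 cells treated with a concentration series. 20 uM Triacsin C defined 100% inhibition.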

[1] = measured here: lipid fluorescence (Fed channel) AC50, cells fed with added oleic acid
[2] = measured here: cell number channel AC50, cells fed with added oleic acid

Compound | AC50 [1] | cell number change | AC50 [2]
COc1ccc(CNC(=O)c2ccc(Cl)c(S(=O)(=O)N3CCOCC3)c2)cc1OC | 16.4 µM [falling, single point] | – | –
N#Cc1ccccc1OCC(=O)N1N=C(c2cccs2)CC1c1ccco1 (configuration not stated) | 0.461 µM [rising, full curve, poor fit] | -4.29% | –
CCOC(=O)C1=C(N)Oc2cc(O)ccc2C1c1ccc(F)cc1F (configuration not stated) | – | -51.6% | 20.6 µM [falling, single point]
COc1ccc(S(=O)(=O)N2CCCOC2CNC(=O)C(=O)NCCc2ccco2)cc1OC (configuration not stated) | 29.1 µM [rising, single point] | 17% | –
NS(=O)(=O)c1ccc(NC(=O)c2ccc(-c3ccccc3)cc2)cc1 | 5.8 µM [falling, single point] | 25% | –
COc1ccc(-n2ncc3c2CC(C)(C)CC3NC(=O)CN2CCOC2=O)cc1 (configuration not stated) | – | 5.67% | –
O=C(COC(=O)c1ccc(S(=O)(=O)N2CCCC2)cc1)Nc1cccc(Br)c1 | 0.651 µM [falling, full curve] | -1.4% | –
CC1CCN(C(=O)CSc2nnc(CNC(=O)c3ccco3)o2)CC1 | 0.58 µM [falling, single point] | 66.1% | 20.6 µM [rising, single point]
CCC(C(=O)OCC(=O)N1CCN(S(=O)(=O)c2ccc(C)cc2C)CC1)c1ccccc1 (configuration not stated) | 8.2 µM [rising, partial curve, poor fit] | -23.3% | –
COc1ccccc1C(=O)NC(=O)COC(=O)Cc1ccccc1[N+](=O)[O-] | 6.51 µM [rising, single point] | – | –
CCc1ccccc1-n1c(SCC(=O)N2CCCC2)nnc1-c1ccccn1 | 0.731 µM [rising, single point] | – | 6.51 µM [falling, single point]
CNc1nc(Sc2ccc(C)cc2)cc(C(F)(F)F)n1 | – | 18.6% | –
O=C(NCC(=O)N(c1cccnc1)C(C(=O)NC1CCCC1)c1ccco1)c1cccs1 (configuration not stated) | 32.6 µM [falling, partial curve, poor fit] | -26.4% | –
CC(=O)c1ccccc1OCCCN1CCCCC1 | 6.51 µM [falling, single point] | -10.7% | –
CC1CN(CCCOc2ccccc2-c2ccccc2)CC(C)O1 (configuration not stated) | – | -0.184% | –
O=C(NCCS(=O)(=O)N1CCc2ccccc2C1)c1ccccc1 | – | 11.9% | –
Cc1ccc(CN2CCN(/N=C/c3ccc(C)s3)CC2)cc1 | 0.00517 µM [rising, full curve, poor fit] | -6.51% | –
NC(=O)NC(=O)CSc1ccccc1 | – | 4.52% | –
COc1ccc(NC(=O)c2ccc(S(=O)(=O)N3CCOCC3)o2)cc1 | 2.31 µM [rising, full curve, poor fit] | 21.1% | –

Compound | AC50 [1] | cell number change | AC50 [2]
CC1=C(C(=O)N2CCOCC2)C(c2ccc(O)cc2)NC(=S)N1 (configuration not stated) | 18.4 µM [falling, single point] | 5.92% | –
CCOC(=O)c1c(C)[nH]c(C(=O)COC(=O)c2ccc(F)c(S(=O)(=O)N3CCOCC3)c2)c1C | – | – | 0.164 µM [rising, full curve, poor fit]
CCOC(=O)C1C(=O)C=C(/C=C/c2ccc(N(C)C)cc2)CC1c1ccccc1 (configuration not stated) | 4.11 µM [falling, full curve] | -94.8% | 4.61 µM [falling, full curve]
CCOc1cc(/C=C2\SC(=S)N(C(C(=O)O)c3ccccc3)C2=O)ccc1O (configuration not stated) | 25.9 µM [falling, partial curve] | -91.9% | 29.1 µM [falling, partial curve, poor fit]
CCCNC(=S)N1CCN(C)CC1 | 1.16 µM [falling, single point] | 12.3% | 0.461 µM [falling, single point]
CCOC(=O)/C(C#N)=C/c1c[nH]c2ccccc12 | 16.4 µM [falling, single point] and 29.1 µM [falling, single point] | -29.9% and -28.9% | –
Cc1c(C(=O)N2CCCCC2C)sc2nc3n(c(=O)c12)CCC3 (configuration not stated) | 0.58 µM [rising, full curve] | 9.25% | –
CC1CN(S(=O)(=O)c2ccc(C(=O)Nc3nnc(-c4ccc5c(c4)CCCC5)o3)cc2)CC(C)O1 (configuration not stated) | – | 38.7% | 29.1 µM [rising, single point]
O=C(c1ccc([N+](=O)[O-])cc1)N1CCN(C(=O)C2CCCCC2)CC1 | – | 10.1% | –
Cc1ccc(N2CC(C(=O)NC3=NCCS3)CC2=O)cc1 (configuration not stated) | – | -23.1% | 3.66 µM [falling, full curve, poor fit]
COc1cc(-c2cc(C(=O)N3CCCCCC3)c3ccccc3n2)cc(OC)c1OC | – | -32.8% | 11.6 µM [falling, partial curve]
COc1ccc2nc(NC(=O)CSc3nnc(-c4ccoc4C)n3C)sc2c1 | 0.116 µM [falling, full curve, poor fit] | -9.6% | –
COc1ccc(C(=O)CC(CC(=O)c2ccc(OC)cc2)C(=O)O)cc1 | 18.4 µM [rising, partial curve, poor fit] | 15.3% | –
CCn1c(C)nc2cc(C(=O)N=Nc3c(O)[nH]c4c(C)cc(C)cc34)ccc21 | 6.51 µM [rising, single point] | 10.6% | 5.17 µM [rising, single point]
Cc1oc2ccccc2c1CNC(=O)N(C)C | 2.59 µM [rising, full curve, poor fit] | 20.4% | –
O=C(N1CCOCC1)C1(c2ccc(Cl)cc2)CCCC1 | – | 35.5% | 29.1 µM [rising, partial curve]
Cn1c(SCC(=O)Nc2ccc(N3CCOCC3)cc2)nnc1-c1ccco1 | 5.8 µM [rising, partial curve] | -10.3% | 0.0651 µM [falling, full curve, poor fit]
Brc1ccc(-c2csc(/N=C/N3CCOCC3)n2)cc1 | 20.6 µM [rising, partial curve] | 107% | 18.4 µM [rising, single point]
CCN(CC)C(=O)C1CCCN(c2ncnc3c2cnn3-c2cccc(C)c2)C1 (configuration not stated) | 1.84 µM [rising, partial curve, poor fit] | -15.5% | –

Gathered by group: the entries above with a COOH group (2)
Compound | AC50 [1] | cell number change | AC50 [2]
CCOc1cc(/C=C2\SC(=S)N(C(C(=O)O)c3ccccc3)C2=O)ccc1O (configuration not stated) | 25.9 µM [falling, partial curve] | -91.9% | 29.1 µM [falling, partial curve, poor fit]
COc1ccc(C(=O)CC(CC(=O)c2ccc(OC)cc2)C(=O)O)cc1 | 18.4 µM [rising, partial curve, poor fit] | 15.3% | –

(further entries)

Compound | AC50 [1] | cell number change | AC50 [2]
COc1cccc(N2C(=O)C(CC(=O)Nc3ccccc3)N(C3CCCCC3)C2=O)c1 (configuration not stated) | – | 106% | 20.6 µM [rising, single point]
N#Cc1c(C#N)c(-c2ccccc2)n(-c2ccc(C(=O)O)cc2)c1N | 0.651 µM [falling, full curve] | -23.3% | –
CC1(C)C=Cc2c(c3c(c4c(=O)c(-c5ccc(O)cc5)coc24)OC(C)(C)CC3)O1 | 25.9 µM [falling, partial curve] | -31.4% | 20.6 µM [falling, single point]
CC(C)C[C@@H](CO)N1CCN(Cc2ccc(O)cc2)CCC1=O | 5.8 µM [rising, full curve] | 35% | 0.146 µM [rising, full curve]
COc1ccc(S[C@@H](CCN2CC[C@H](O)CCC2=O)c2ccccc2)cc1 | 0.00461 µM [falling, full curve, poor fit] | 10.1% | 0.517 µM [falling, full curve, poor fit]
CC(C)(C)n1nnnc1C(c1ccccn1)N(Cc1ccccc1)Cc1ccc(Cl)cc1 (configuration not stated) | 0.00517 µM [falling, full curve, poor fit] | -18.1% | 0.0164 µM [falling, full curve, poor fit]
CCNC(=S)NN(c1ccccc1)c1ccccc1 | 6.51 µM [falling, single point] | 4.83% | –
C/C(=N\Nc1ccccc1C)c1cccnc1 | 16.4 µM [rising, partial curve, poor fit] | -8.03% | –
CC(C)(C)c1cc(CCC(=O)NCCc2ccccn2)cc(C(C)(C)C)c1O | 29.1 µM [falling, single point] | 5.56% | –
CCc1cc(=O)oc2cc(OCC=C(C)C)ccc12 | 0.291 µM [rising, partial curve, poor fit] | 15.5% | –
O=C([O-])c1ccccc1-[n+]1c(-c2ccccc2)cc(-c2ccccc2)cc1-c1ccccc1 | 1.46 µM [falling, partial curve] | -36.5% | 29.1 µM [falling, single point]
COCCn1c(SCC(=O)Nc2ccccc2OC)nc2ccccc2c1=O | 6.51 µM [rising, single point] | -29.1% | –
Cc1ccc(S(=O)(=O)Nc2cc(=O)[nH]c(SCc3ccccc3Cl)n2)cc1 | 8.2 µM [falling, partial curve, poor fit] | -2.88% | –
CC(NS(=O)(=O)c1ccc(Br)cc1)C(=O)NCC1CCCO1 (configuration not stated) | – | 10.4% | –
COc1cc(/C=N/NC(=O)CNC(=O)c2ccco2)ccc1O | 18.4 µM [falling, single point] | -16.5% | –
CCNC(=O)N1C(=O)C2(OCCO2)c2cc(Br)ccc21 | – | -5.81% | –
COc1ccc(NC(=O)Cc2ccc(Cl)cc2)cc1NC(=O)c1ccco1 | 18.4 µM [rising, partial curve] | 142% | 20.6 µM [rising, partial curve]
O=C(Cn1nnc(-c2cccs2)n1)NCc1cccs1 | – | -11.7% | 0.731 µM [falling, full curve, poor fit]
Cc1cc2[nH]c(=O)c(=O)[nH]c2cc1S(=O)(=O)N1CCN(c2cccc(C(F)(F)F)c2)CC1 | 16.4 µM [rising, single point] | 64.2% | 23.1 µM [rising, single point]
